The target of assay [1] is T1, Human CCR8 (UniProt Identifier P51685) (human) (UniProt P51685). Briefly: IHC on cell pellet array (NSO huCCR8, HEK293 untagged CCR8, Hut78 and wildtype negative controls).
Assay [2] deals with T1, Human CCR8. Briefly: IHC on human H&N SCC FFPE tissues at 0.25 µg/mL.
For assay [3], the target named is T1, Human CCR8. Briefly: IHC on cell pellets and human FFPE tissues.
Assay [4] deals with T1, Human CCR8. Briefly: IHC on CCR8-expressing HEK293T cell pellets with or without 7-B16 pre-treatment.

Chains of the proteins cited; added tags and fusions are not shown. Lines headed by an entry give the natural chain unless they say otherwise; changes in a name come on top.
UniProt P51685: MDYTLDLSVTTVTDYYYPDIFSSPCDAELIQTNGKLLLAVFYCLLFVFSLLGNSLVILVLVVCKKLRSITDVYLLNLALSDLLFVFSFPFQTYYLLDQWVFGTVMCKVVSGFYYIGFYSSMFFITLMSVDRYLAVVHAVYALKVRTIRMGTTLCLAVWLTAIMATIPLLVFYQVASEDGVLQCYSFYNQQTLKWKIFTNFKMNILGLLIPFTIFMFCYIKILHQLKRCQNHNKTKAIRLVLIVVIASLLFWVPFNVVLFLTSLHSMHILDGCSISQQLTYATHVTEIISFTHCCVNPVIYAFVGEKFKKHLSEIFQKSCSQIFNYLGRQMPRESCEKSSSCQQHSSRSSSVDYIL

Data on two molecules can be found in US20260056209A1.

Results are given in words; binding and its absence hold for the method and conditions named. Some results given as binding are weak or reduced against the parent protein; the word gives no strength. Sequences can lack the tags named with a protein.

B1: BD 566379 (Clone 433H) (antibody, V domains shown)
VH: EVQLVETGGGLVQPKGSLRLSCAASGFPFNTFAMNWVRQAPGKGLEWLARIRSKSNNYATYYADSVKDRFTISRDDSRRMLYLLMNNVKFEDTAIYYCVRGKENNYGYAMDYWGQGTSVTVSS
VL: DIVMTQAAPSVPVTPGESVSISCRSSQSLLHSNGNTYLYWFLQRPGQSPQLLIYRMSNLASGVPDRFSGSGSGTAFTLRISRVEAEDVGVYYCMQHLEYPFTFGIGTKLELKR
B1: the binding result in the assay with Human CCR8 [1] and with Human CCR8 [2] was “binds” throughout.

B2: BD 624084 (unconjugated 433H antibody) (antibody, human IgG1, kappa, V domains shown)
VH: B1 VH
VL: B1 VL
Turning to B2, the binding entry in the assay with Human CCR8 [3] and with Human CCR8 [4] was “binds” throughout.
